Source: the ROBIN nucleic acid binder screens (doi:10.1002/anie.202211358).

Oligonucleotides screened, 5′ to 3′:
PreQ1: PreQ1 riboswitch RNA pseudoknot, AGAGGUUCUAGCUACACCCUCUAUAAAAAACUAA. From B. subtilis. Hit rate about 0.7% of about 24,000 compounds.
SAM-II: SAM-II riboswitch RNA pseudoknot, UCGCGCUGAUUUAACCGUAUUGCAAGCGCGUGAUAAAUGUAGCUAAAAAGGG. Hit rate about 1% of about 21,000 compounds.
TPP: TPP riboswitch RNA three-way junction, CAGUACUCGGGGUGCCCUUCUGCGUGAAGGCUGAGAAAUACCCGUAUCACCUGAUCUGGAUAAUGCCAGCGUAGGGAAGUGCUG. Hit rate about 0.7% of about 24,000 compounds.

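Compounds were printed on reactive glass slides in duplicate spots, a dye-labelled oligonucleotide was laid over them, and the fluorescence left after washing was read. The data file lists only calls. An earlier report of the laboratory on the PreQ1, TPP and SAM-II riboswitches (doi:10.1038/s41467-019-09493-3) used 1 µM RNA for 2 h and required a mean Z-score above 3 (spot signal-to-noise against the whole library), a score well above that on a control array, and duplicate spots agreeing (coefficient of variation under 100); it then also set aside compounds that hit other targets, which this list keeps. The cut-offs behind this list may differ. These are primary screening calls, not affinities; a compound without a hit may have attached poorly or may still bind in solution.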 Key: active = hit, inactive = tested without a hit. The compounds are a random part of those screened. A target missing from an entry has no call listed here. A dash means that no call is listed here.

structure	PreQ1	SAM-II	TPP
Cc1cc(NC(=O)CNc2ccccc2)no1	inactive	inactive	inactive
CC(C)(F)C[C@H](N[C@@H](c1ccc(-c2ccc(S(C)(=O)=O)cc2)cc1)C(F)(F)F)C(=O)NC1(C#N)CC1	inactive	inactive	inactive
COc1ccccc1CNc1ccc2c(c1)nc(C)n2C	inactive	inactive	inactive
CCCCNc1cc(C(C)C)nc2nc(-c3cccnc3)nn12	inactive	-	inactive
CC(=O)c1cnc(Nc2nc(C)c3ccc(C)cc3n2)nc1C	inactive	inactive	inactive
CCCCCOC(=O)Nc1nc(=O)n([C@@H]2O[C@H](C)[C@@H](O)[C@@H]2O)cc1F	inactive	inactive	inactive
Cc1ccc2c(N)c(C(=O)Nc3ccccc3)sc2n1	inactive	inactive	inactive
CC(C)c1cc(C(=O)NCCN2CCCCC2CO)on1 (centres unmarked)	inactive	inactive	inactive
N[C@@H]1CCN(Cc2cccc(Oc3cccc(C(F)(F)F)c3)c2)C[C@H]1O	inactive	inactive	inactive
O=C(Nc1cccn2cnnc12)N1CC[C@@H](c2ccc3c(c2)OCO3)[C@H](O)C1	inactive	inactive	inactive
COCc1[nH]nc2c1C(c1ccc(F)cc1)C(C#N)=C(N)O2 (centres unmarked)	inactive	inactive	inactive
CCNc1oc(-c2ccc(S(=O)(=O)N(C)C)cc2)nc1C#N	inactive	-	inactive
CCOCC(O)CNC(=O)CC(=O)Nc1ccc(C)cc1 (centres unmarked)	inactive	inactive	inactive
O=C(NCCn1ccnc1)C1(Oc2ccc(Cl)cc2)CCNCC1	inactive	inactive	inactive
OC(Cn1cnc(-c2ccccc2)c1C=Cc1ccc(F)cc1)c1cccnc1 (centres unmarked)	inactive	inactive	inactive
O=C(CCCn1cccn1)N1C[C@H](CO)C[C@H](CN2CCOCC2)C1	inactive	inactive	inactive
Cc1nc2sc(C(=O)NC(C)(C)C)c(N)c2c(C)c1C	inactive	inactive	inactive
COc1ccc(-c2ccc(NC(=O)N3CCCC(CO)C3)cc2)cc1 (centres unmarked)	inactive	inactive	inactive
O=C(C1CCCO1)N1CCC(NCc2ccc3sccc3c2)CC1 (centres unmarked)	inactive	inactive	inactive
CCc1cc(N2CCC(NCc3ccc(Cl)s3)CC2)nc(C)n1	inactive	inactive	inactive
COc1cc(OC)cc(-c2cc(N)n(S(=O)(=O)c3ccc(OC)c(OC)c3)n2)c1	inactive	inactive	inactive
COc1ccc2c(CNCCCc3ccccc3)c(C(=O)O)[nH]c2c1	inactive	-	inactive
C=CCN(Cc1ccccn1)c1cc(C2CCNCC2)ncn1	inactive	inactive	inactive
Cc1ccc(NC(=O)C2CNCCN2C(=O)c2ccc3ccccc3n2)cn1 (centres unmarked)	inactive	inactive	inactive
COc1ccc(N2C(=O)C3C4c5ccccc5C(CO)(c5ccccc54)C3C2=O)cc1 (centres unmarked)	inactive	inactive	inactive
Nc1cccc(-c2nc(Cn3cncn3)n[nH]2)c1	inactive	inactive	inactive
Cc1ccccc1NC(=O)C(=O)Nc1ccccc1C	inactive	inactive	inactive
OC1(CN2CCCC2)CCN(C2CCC3(CCNCC3)CC2)CC1	inactive	inactive	inactive
Nc1ccc2c(c1)OC1(CCCCC1)O2	inactive	inactive	inactive
CC(C)n1ccnc1C1CCN(C(=O)[C@H](O)C2CCCCC2)CC1	inactive	inactive	inactive
O=C(N1CCCC(CO)(CC2CC2)C1)C1(c2ccc(F)cc2)CC1 (centres unmarked)	inactive	inactive	inactive
CCn1c(C2CCCNC2)nn(CC(=O)N2CCc3ccccc32)c1=O (centres unmarked)	inactive	inactive	inactive
COc1cc(C2C(C#N)=C(N)OC3=C2C(=O)CC(C)(C)C3)cc(OC)c1O (centres unmarked)	inactive	inactive	inactive
Nc1ccc(-c2cc[nH]n2)cc1	active	inactive	inactive
CC1(C)NC(=O)N(CC(O)Cn2c3ccccc3c3ccccc32)C1=O (centres unmarked)	inactive	inactive	inactive
O=C(NCCCO)Nc1ccc2snnc2c1	inactive	-	inactive
CC(O)c1nc2ccccc2n1Cc1cccc(Cl)c1 (centres unmarked)	inactive	-	inactive
Cc1ccc(C(=O)N2C[C@@H](CN3CCCN(C)CC3)[C@@H](CO)C2)c(=O)n1C	inactive	inactive	inactive
Nc1nonc1C(=O)NCCNCc1cc(Cl)ccc1OCc1ccccc1F	inactive	-	inactive
CC1(c2ccc3ccccc3c2)CCC(=O)O1 (centres unmarked)	inactive	inactive	inactive
CC(=O)c1ccccc1OCC(O)Cn1c(C(C)C)nc2ccccc21 (centres unmarked)	inactive	inactive	inactive
OC1CCN(Cc2ccc(Cl)c(Cl)c2)CC1	inactive	inactive	inactive
CS(=O)(=O)N1CCOC(CNC(=O)CCc2cc3n(n2)CCNC3)C1 (centres unmarked)	inactive	inactive	inactive
CCCCc1nc(CN2CC[C@@H]3[C@@H](CCC(=O)N3CCNC)C2)c(Cl)[nH]1	inactive	inactive	inactive
CCOC(=O)c1c(CSc2ccccc2)n(C)c2cc(Br)c(O)c(CN(C)C)c12	inactive	inactive	inactive
Cl.OC(COCCC12CC3CC(CC(C3)C1)C2)CN1CCOCC1 (centres unmarked)	inactive	inactive	inactive
CC1CCC(C(C)C)C(OCC(O)CN2CC(C)OC(C)C2)C1 (centres unmarked)	inactive	inactive	inactive
CCOC(=O)c1cnc2c(C(F)(F)F)cccc2c1NCCCO	inactive	inactive	inactive

Once more, the final 4:

* CCOC(=O)c1c(CSc2ccccc2)n(C)c2cc(Br)c(O)c(CN(C)C)c12 | PreQ1: inactive; SAM-II: inactive; TPP: inactive
* Cl.OC(COCCC12CC3CC(CC(C3)C1)C2)CN1CCOCC1 (centres unmarked) | PreQ1: inactive; SAM-II: inactive; TPP: inactive
* CC1CCC(C(C)C)C(OCC(O)CN2CC(C)OC(C)C2)C1 (centres unmarked) | PreQ1: inactive; SAM-II: inactive; TPP: inactive
* CCOC(=O)c1cnc2c(C(F)(F)F)cccc2c1NCCCO | PreQ1: inactive; SAM-II: inactive; TPP: inactive